Data as given in PubChem BioAssay AID743121 (NCATS, 2013).
Shown is an unselected part of about 26,000 deposited reagents. Over the whole deposit, 167 (0.63%) were called active. 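Calls are per gene from RSA p-values that are not deposited; an individual active-marked siRNA can sensitise only weakly.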 Reagents against one gene are numbered here. Further read-outs or replicates are left out here. Reagent sequences are not shown.

- Aim: 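Knock-downs that sensitise breast cancer cells to camptothecin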 (primary screen)
- System: MDA-MB-231 cells, a human breast cancer line
- Reagents: single siRNA against human genes, 20 nM siRNA (0.8 pmol per well)
- Duration: 120 h (drug added 48 h after transfection, read 72 h later)
- Conditions: camptothecin 20 nM (about EC30) for 72 h; vehicle 0.1% DMSO in parallel plates
- Measured: 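CellTiter-Glo ATP signal, scaled to control siRNA as percent viability; sensitisation given as log2 of untreated divided by camptothecin-treated viability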
- Direction: log2 vehicle/camptothecin viability: higher = stronger sensitisation to camptothecin
- Rule for the call: 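Each gene scored by redundant siRNA activity (RSA) over its individual siRNA ratios; a gene is called active at p < 0.001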

MSX1 (msh homeobox 1) #1 — log2 vehicle/camptothecin viability = 0.0411; Call = inactive
MSX1 (msh homeobox 1) #2 — log2 vehicle/camptothecin viability = -0.32; Call = inactive
MSX1 (msh homeobox 1) #3 — log2 vehicle/camptothecin viability = -0.0909; Call = inactive
MSX1 (msh homeobox 1) #4 — log2 vehicle/camptothecin viability = -0.084; Call = inactive
DLG4 (discs large MAGUK scaffold protein 4) #1 — log2 vehicle/camptothecin viability = 0.575; Call = inactive
DLG4 (discs large MAGUK scaffold protein 4) #2 — log2 vehicle/camptothecin viability = -0.0109; Call = inactive
DLG4 (discs large MAGUK scaffold protein 4) #3 — log2 vehicle/camptothecin viability = -0.0941; Call = inactive
DLG4 (discs large MAGUK scaffold protein 4) #4 — log2 vehicle/camptothecin viability = 0.0422; Call = inactive
OR8G1 (olfactory receptor family 8 subfamily G member 1) #1 — log2 vehicle/camptothecin viability = -0.126; Call = inactive
OR8G1 (olfactory receptor family 8 subfamily G member 1) #2 — log2 vehicle/camptothecin viability = -0.0965; Call = inactive
OR8G1 (olfactory receptor family 8 subfamily G member 1) #3 — log2 vehicle/camptothecin viability = -0.0687; Call = inactive
OR8G1 (olfactory receptor family 8 subfamily G member 1) #4 — log2 vehicle/camptothecin viability = -0.31; Call = inactive
OCRL (OCRL inositol polyphosphate-5-phosphatase) #1 — log2 vehicle/camptothecin viability = -0.61; Call = inactive
OCRL (OCRL inositol polyphosphate-5-phosphatase) #2 — log2 vehicle/camptothecin viability = -0.346; Call = inactive
OCRL (OCRL inositol polyphosphate-5-phosphatase) #3 — log2 vehicle/camptothecin viability = -0.14; Call = inactive
MAST3 (microtubule associated serine/threonine kinase 3) #1 — log2 vehicle/camptothecin viability = -0.21; Call = inactive
MAST3 (microtubule associated serine/threonine kinase 3) #2 — log2 vehicle/camptothecin viability = -0.0216; Call = inactive
MAST3 (microtubule associated serine/threonine kinase 3) #3 — log2 vehicle/camptothecin viability = -0.415; Call = inactive
MAST3 (microtubule associated serine/threonine kinase 3) #4 — log2 vehicle/camptothecin viability = -0.0376; Call = inactive
TLR9 (toll like receptor 9) #1 — log2 vehicle/camptothecin viability = -0.0515; Call = inactive
TLR9 (toll like receptor 9) #2 — log2 vehicle/camptothecin viability = 0.0666; Call = inactive
TLR9 (toll like receptor 9) #3 — log2 vehicle/camptothecin viability = -0.641; Call = inactive
TLR9 (toll like receptor 9) #4 — log2 vehicle/camptothecin viability = -0.322; Call = inactive
BMAL2 (basic helix-loop-helix ARNT like 2) #1 — log2 vehicle/camptothecin viability = -0.385; Call = inactive
BMAL2 (basic helix-loop-helix ARNT like 2) #2 — log2 vehicle/camptothecin viability = -0.0544; Call = inactive
BMAL2 (basic helix-loop-helix ARNT like 2) #3 — log2 vehicle/camptothecin viability = 0.0664; Call = inactive
PPM1M (protein phosphatase, Mg2+/Mn2+ dependent 1M) #1 — log2 vehicle/camptothecin viability = -0.38; Call = inactive
PPM1M (protein phosphatase, Mg2+/Mn2+ dependent 1M) #2 — log2 vehicle/camptothecin viability = -0.173; Call = inactive
PPM1M (protein phosphatase, Mg2+/Mn2+ dependent 1M) #3 — log2 vehicle/camptothecin viability = -0.00951; Call = inactive
PPM1M (protein phosphatase, Mg2+/Mn2+ dependent 1M) #4 — log2 vehicle/camptothecin viability = -0.277; Call = inactive
GCLM (glutamate-cysteine ligase modifier subunit) #1 — log2 vehicle/camptothecin viability = -0.0511; Call = inactive
GCLM (glutamate-cysteine ligase modifier subunit) #2 — log2 vehicle/camptothecin viability = -0.216; Call = inactive
GCLM (glutamate-cysteine ligase modifier subunit) #3 — log2 vehicle/camptothecin viability = 0.334; Call = inactive
GCLM (glutamate-cysteine ligase modifier subunit) #4 — log2 vehicle/camptothecin viability = 0.013; Call = inactive
DDI2 (DDI proteasomal shuttling factor 2) #1 — log2 vehicle/camptothecin viability = 0.0124; Call = inactive
DDI2 (DDI proteasomal shuttling factor 2) #2 — log2 vehicle/camptothecin viability = -0.0852; Call = inactive
DDI2 (DDI proteasomal shuttling factor 2) #3 — log2 vehicle/camptothecin viability = -0.373; Call = inactive
DDI2 (DDI proteasomal shuttling factor 2) #4 — log2 vehicle/camptothecin viability = -0.112; Call = inactive
DDI2 (DDI proteasomal shuttling factor 2) #5 — log2 vehicle/camptothecin viability = 0.194; Call = inactive
DDI2 (DDI proteasomal shuttling factor 2) #6 — log2 vehicle/camptothecin viability = 0.251; Call = inactive
DDI2 (DDI proteasomal shuttling factor 2) #7 — log2 vehicle/camptothecin viability = 0.0582; Call = inactive
DDI2 (DDI proteasomal shuttling factor 2) #8 — log2 vehicle/camptothecin viability = -0.255; Call = inactive
